Values from PubChem BioAssay AID504804 (Drosophila RNAi Screening Center, 2011).
Purpose: 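Fly genes whose loss lessens doxorubicin-driven cell death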 (primary screen). Cell system: Drosophila Kc cells. Reagent: long dsRNA against Drosophila genes, 0.5 µg dsRNA per well. Duration: 96 h (48 h knock-down, then 48 h drug). Challenge: doxorubicin 5 µg/ml for 48 h, added 48 h after dsRNA. Measurement: 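Luminescent ATP counts per replicate, not normalised, reflecting viable cells after 48 h dsRNA knock-down followed by 48 h of 5 µg/ml doxorubicin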. Scale: raw ATP luminescence: higher = more viable cells, protection from doxorubicin. Active means: 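Active when both duplicate wells lie at least 2 SD above the plate mean and protection is confirmed by rescreening and independent dsRNAs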.
The deposit covers about 19,000 reagents; this is a random part of those with a known target gene and a result. Over the whole deposit, 47 (0.25%) are marked active. 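Signals are raw, not normalised; exact z-scores behind calls not deposited; actives needed confirmation, so some wells reaching 2 SD are inactive.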 Unmarked entries are inactive. A plus sign joins genes that one reagent is predicted to hit.

| predicted target | DRSC id | SD above plate mean | raw ATP luminescence, replicate 1 | raw ATP luminescence, replicate 2 |
| --- | --- | --- | --- | --- |
| natalisin | DRSC14966 | – | 29210 | 29490 |
| natalisin | DRSC14967 | – | 55050 | 66180 |
| cyp33 | DRSC07600 | – | 74770 | 37863 |
| wek | DRSC03561 | – | 88710 | 71597 |
| kdn | DRSC18328 | – | 35360 | 52770 |
| Gmap | DRSC20057 | – | 2.82e5 | 2.37e5 |
| CG31807 | DRSC01550 | – | 3.36e5 | 2.67e5 |
| Mcm7 | DRSC11219 | – | 47717 | 37270 |
| CG13074 | DRSC09957 | – | 61273 | 61310 |
| CG13784 | DRSC00974 | – | 2.48e5 | 2.36e5 |
| CG13784 | DRSC02287 | – | 1.02e5 | 55773 |
| CG4757 | DRSC14130 | – | 37417 | 46863 |
| CG7484 | DRSC10853 | – | 76413 | 70980 |
| Ir7c | DRSC18007 | – | 29940 | 33090 |
| CG1288 | DRSC12538 | – | 57230 | 60677 |
| drm | DRSC00277 | – | 33383 | 44043 |
| Dtwd2 + Obp84a | DRSC12603 | – | 64637 | 64667 |
| Cda4 | DRSC20623 | – | 3.76e5 | 3.38e5 |
| Cda4 | DRSC20641 | – | 3.14e5 | 3.42e5 |
| Cda4 | DRSC20642 | – | 3.59e5 | 3.44e5 |
| CG34268 | DRSC07874 | – | 1.45e5 | 1.43e5 |
| MRG15 | DRSC16731 | – | 54430 | 18520 |
| CtsF | DRSC12056 | – | 73513 | 75593 |
| CtsF | DRSC12195 | – | 46870 | 56160 |
| CtsF | DRSC12196 | – | 76093 | 59213 |
| Fkbp14 | DRSC04615 | – | 90423 | 62737 |
| CG32564 | DRSC19933 | – | 4.52e5 | 3.78e5 |
| CG5535 | DRSC10514 | – | 24600 | 23660 |
| CG34160 | DRSC01131 | – | 2.85e5 | 3.11e5 |
| CenG1A | DRSC02538 | – | 69370 | 76813 |
| CenG1A | DRSC03505 | – | 85150 | 82160 |
| CenG1A | DRSC03506 | – | 84030 | 83690 |
| CG31199 | DRSC15284 | – | 48843 | 42933 |
| CG10126 | DRSC14191 | – | 55660 | 27270 |
| Cpr65Ay | DRSC08796 | – | 1.34e5 | 1.10e5 |
| CG10725 | DRSC09788 | at least 3 SD above plate mean (active) | 72987 | 72207 |
| fus | DRSC05569 | – | 93107 | 95313 |
| fus | DRSC07107 | – | 80427 | 72140 |
| del | DRSC03170 | – | 75220 | 69073 |
| CG33223 | DRSC17572 | – | 1.92e5 | 2.01e5 |
| CG17207 | DRSC15198 | – | 69587 | 64583 |
| Mvb12 | DRSC20027 | – | 3.13e5 | 3.05e5 |

Continued, starting with the last 7 of the part before.
| predicted target | DRSC id | SD above plate mean | raw ATP luminescence, replicate 1 | raw ATP luminescence, replicate 2 |
| --- | --- | --- | --- | --- |
| CG10725 | DRSC09788 | at least 3 SD above plate mean (active) | 72987 | 72207 |
| fus | DRSC05569 | – | 93107 | 95313 |
| fus | DRSC07107 | – | 80427 | 72140 |
| del | DRSC03170 | – | 75220 | 69073 |
| CG33223 | DRSC17572 | – | 1.92e5 | 2.01e5 |
| CG17207 | DRSC15198 | – | 69587 | 64583 |
| Mvb12 | DRSC20027 | – | 3.13e5 | 3.05e5 |
| scw | DRSC01711 | – | 2.52e5 | 2.51e5 |
| scw | DRSC21252 | – | 2.98e5 | 3.13e5 |
| mav | DRSC17149 | – | 52920 | 25980 |
| CG6938 | DRSC10752 | – | 74283 | 74157 |
| Fancm | DRSC16348 | – | 47797 | 48030 |
| Orai | DRSC05684 | – | 1.46e5 | 1.32e5 |
| CG32452 | DRSC11581 | – | 58117 | 59560 |
| Scsalpha1 | DRSC08698 | – | 56543 | 45977 |
| mRpL24 | DRSC03113 | – | 1.09e5 | 80673 |
| CG13484 | DRSC10026 | – | 49913 | 41093 |
| CG17202 | DRSC15194 | – | 38837 | 39483 |
| SelR | DRSC16071 | – | 52790 | 54407 |
| SmydA-2 | DRSC10296 | – | 78757 | 66063 |
| CG13862 | DRSC14712 | – | 47890 | 85140 |
| osy | DRSC14903 | – | 68830 | 67890 |
| osy | DRSC15979 | – | 60130 | 63800 |
| CG7968 | DRSC01903 | – | 81210 | 81290 |
| Ser6 | DRSC20574 | – | 3.37e5 | 3.33e5 |
| CG12377 (retired record) | DRSC11671 | – | 55640 | 55507 |
| CG12377 (retired record) | DRSC11672 | – | 60680 | 64970 |
| CG31556 (retired record) | DRSC12122 | – | 71963 | 50900 |
| Csp | DRSC11860 | – | 19270 | 23190 |
| VhaSFD | DRSC03471 | – | 86870 | 61683 |
| S1P | DRSC11810 | – | 79977 | 70420 |
| Sms | DRSC10408 | – | 68193 | 70130 |
| Pxt | DRSC17040 | – | 41590 | 29660 |
| Ndc1 | DRSC15895 | – | 40070 | 36437 |
| CG15818 | DRSC02505 | – | 1.27e5 | 73133 |
| CG43339 + CG43338 | DRSC02466 | – | 75657 | 61573 |
| CG34248 | DRSC09426 | – | 90643 | 90763 |
| HisRS | DRSC19986 | – | 2.60e5 | 2.64e5 |
| CG14629 | DRSC18476 | – | 49560 | 71590 |
| PI31 | DRSC07306 | – | 62357 | 53910 |
| CG4842 | DRSC10453 | – | 56523 | 51563 |
| Ipp | DRSC16718 | – | 1.51e5 | 88530 |
| Adk1 | DRSC15514 | – | 44767 | 49940 |
| bsh | DRSC03498 | – | 1.65e5 | 2.19e5 |
| Fhos | DRSC08943 | – | 1.72e5 | 2.09e5 |
| Fhos | DRSC10545 | – | 43400 | 34160 |
| Fhos | DRSC10546 | – | 40583 | 42997 |
| Fhos | DRSC10547 | – | 78667 | 79783 |
| CG17221 | DRSC00487 | – | 23780 | 27203 |
